Laboratory results: doi:10.1101/2023.07.07.548106
No constants are given. Whether binding was seen depends on the method and setting. Some results given as binding are weak or reduced against the parent protein; the word gives no strength. Tags and fused reporters may be left off the sequences shown.

Molecular target: T1, human CXCL17 (1-119) with a C-terminal His tag, expressed in CHO-761H cells (human), Q6UXB2
T1 chain: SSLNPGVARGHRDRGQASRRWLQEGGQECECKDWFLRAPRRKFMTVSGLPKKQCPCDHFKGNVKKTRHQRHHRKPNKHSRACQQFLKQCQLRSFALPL
Assay: reducing SDS-PAGE and Western blot
Settings: remark: other sources report otherwise

B1: human CXCL17 (1-119) with a C-terminal His tag, expressed in CHO-761H cells, Q6UXB2 22-119 (protein)
chain: T1 chain
  binding: binds
